Data reported in the supplement of paper PMC10849652.
Some of the results follow.

The chains behind the UniProt entries cited, without tags or fusion partners. Where a name states a change or a piece, a line headed by the entry shows the natural chain unless it says otherwise.
UniProt P33240: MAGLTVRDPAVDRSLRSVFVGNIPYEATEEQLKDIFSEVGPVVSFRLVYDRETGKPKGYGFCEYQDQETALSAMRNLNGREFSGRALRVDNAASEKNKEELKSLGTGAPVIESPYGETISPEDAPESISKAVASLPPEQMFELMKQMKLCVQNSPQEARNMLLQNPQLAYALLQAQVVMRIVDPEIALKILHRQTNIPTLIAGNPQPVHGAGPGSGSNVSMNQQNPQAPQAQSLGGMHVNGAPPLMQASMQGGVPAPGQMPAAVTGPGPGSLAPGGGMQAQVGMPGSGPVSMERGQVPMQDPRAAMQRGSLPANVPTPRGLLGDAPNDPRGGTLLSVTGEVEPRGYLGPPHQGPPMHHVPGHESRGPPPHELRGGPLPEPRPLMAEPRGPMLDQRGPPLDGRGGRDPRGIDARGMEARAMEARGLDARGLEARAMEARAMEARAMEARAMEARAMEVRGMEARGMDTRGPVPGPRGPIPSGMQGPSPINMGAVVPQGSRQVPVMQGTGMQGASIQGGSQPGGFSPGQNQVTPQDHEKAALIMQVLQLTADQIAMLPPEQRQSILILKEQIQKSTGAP
UniProt P78368: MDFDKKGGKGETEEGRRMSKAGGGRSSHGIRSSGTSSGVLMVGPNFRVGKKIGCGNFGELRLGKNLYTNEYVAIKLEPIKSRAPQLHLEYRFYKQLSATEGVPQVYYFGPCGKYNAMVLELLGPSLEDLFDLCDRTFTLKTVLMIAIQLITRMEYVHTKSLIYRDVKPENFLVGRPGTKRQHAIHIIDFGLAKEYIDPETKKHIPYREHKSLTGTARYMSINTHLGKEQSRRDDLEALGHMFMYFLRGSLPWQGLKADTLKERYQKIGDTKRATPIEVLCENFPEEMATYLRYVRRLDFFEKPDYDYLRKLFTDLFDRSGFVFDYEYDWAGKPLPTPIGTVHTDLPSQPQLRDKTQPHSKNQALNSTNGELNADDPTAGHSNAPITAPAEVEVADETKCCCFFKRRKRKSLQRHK
UniProt Q14247: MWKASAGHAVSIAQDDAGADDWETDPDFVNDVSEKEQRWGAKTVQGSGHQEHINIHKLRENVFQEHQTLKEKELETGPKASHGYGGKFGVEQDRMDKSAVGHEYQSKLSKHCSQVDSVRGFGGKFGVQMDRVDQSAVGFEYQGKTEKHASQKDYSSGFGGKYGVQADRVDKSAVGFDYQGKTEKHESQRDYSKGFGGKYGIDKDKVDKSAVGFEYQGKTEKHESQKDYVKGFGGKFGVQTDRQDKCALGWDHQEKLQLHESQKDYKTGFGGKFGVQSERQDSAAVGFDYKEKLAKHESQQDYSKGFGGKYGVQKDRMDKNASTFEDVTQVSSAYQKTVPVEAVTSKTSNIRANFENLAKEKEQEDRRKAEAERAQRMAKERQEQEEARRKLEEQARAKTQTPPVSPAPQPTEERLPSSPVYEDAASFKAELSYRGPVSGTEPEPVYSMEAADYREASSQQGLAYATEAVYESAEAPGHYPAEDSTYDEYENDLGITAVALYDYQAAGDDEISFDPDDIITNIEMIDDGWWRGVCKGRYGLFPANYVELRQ
UniProt Q9UBT7: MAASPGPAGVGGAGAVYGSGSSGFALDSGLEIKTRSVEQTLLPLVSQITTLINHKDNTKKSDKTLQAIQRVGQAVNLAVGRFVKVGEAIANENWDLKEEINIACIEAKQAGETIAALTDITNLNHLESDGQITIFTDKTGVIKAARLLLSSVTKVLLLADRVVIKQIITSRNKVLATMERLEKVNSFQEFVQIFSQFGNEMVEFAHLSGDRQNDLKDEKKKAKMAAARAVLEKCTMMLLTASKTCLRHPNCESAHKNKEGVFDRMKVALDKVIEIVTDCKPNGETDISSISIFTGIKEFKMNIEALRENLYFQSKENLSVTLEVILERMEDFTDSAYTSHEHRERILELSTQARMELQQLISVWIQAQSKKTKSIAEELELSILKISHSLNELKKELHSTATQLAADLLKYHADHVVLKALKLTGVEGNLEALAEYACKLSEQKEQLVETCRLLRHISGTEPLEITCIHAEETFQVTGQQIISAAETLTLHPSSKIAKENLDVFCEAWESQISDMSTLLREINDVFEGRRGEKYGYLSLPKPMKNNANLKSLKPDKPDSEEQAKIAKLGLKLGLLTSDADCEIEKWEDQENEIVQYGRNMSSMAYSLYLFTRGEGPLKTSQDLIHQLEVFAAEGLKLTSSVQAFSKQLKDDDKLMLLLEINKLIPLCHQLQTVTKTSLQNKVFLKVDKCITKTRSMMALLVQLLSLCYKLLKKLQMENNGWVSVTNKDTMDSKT
UniProt P10619: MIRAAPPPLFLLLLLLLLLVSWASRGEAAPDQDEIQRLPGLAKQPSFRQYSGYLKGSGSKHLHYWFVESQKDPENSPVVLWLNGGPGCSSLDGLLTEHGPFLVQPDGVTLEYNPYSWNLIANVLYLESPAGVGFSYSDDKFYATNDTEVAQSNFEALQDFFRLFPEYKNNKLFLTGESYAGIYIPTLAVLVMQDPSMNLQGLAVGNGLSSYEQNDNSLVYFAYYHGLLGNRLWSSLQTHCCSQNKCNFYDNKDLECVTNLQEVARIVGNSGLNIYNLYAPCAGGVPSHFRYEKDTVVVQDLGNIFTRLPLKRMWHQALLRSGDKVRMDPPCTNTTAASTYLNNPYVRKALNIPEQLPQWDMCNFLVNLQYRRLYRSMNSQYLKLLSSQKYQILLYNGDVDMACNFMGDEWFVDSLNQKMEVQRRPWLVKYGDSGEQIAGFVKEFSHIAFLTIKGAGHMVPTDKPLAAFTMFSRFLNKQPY
UniProt P46108: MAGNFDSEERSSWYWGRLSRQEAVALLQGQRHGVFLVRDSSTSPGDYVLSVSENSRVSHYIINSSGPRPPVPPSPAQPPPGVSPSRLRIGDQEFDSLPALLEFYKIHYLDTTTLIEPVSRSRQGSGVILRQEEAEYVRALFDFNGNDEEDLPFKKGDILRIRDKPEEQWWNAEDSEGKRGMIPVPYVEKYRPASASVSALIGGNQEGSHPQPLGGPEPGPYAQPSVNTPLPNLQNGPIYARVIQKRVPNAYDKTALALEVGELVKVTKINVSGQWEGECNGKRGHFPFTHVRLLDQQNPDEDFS
UniProt P26232: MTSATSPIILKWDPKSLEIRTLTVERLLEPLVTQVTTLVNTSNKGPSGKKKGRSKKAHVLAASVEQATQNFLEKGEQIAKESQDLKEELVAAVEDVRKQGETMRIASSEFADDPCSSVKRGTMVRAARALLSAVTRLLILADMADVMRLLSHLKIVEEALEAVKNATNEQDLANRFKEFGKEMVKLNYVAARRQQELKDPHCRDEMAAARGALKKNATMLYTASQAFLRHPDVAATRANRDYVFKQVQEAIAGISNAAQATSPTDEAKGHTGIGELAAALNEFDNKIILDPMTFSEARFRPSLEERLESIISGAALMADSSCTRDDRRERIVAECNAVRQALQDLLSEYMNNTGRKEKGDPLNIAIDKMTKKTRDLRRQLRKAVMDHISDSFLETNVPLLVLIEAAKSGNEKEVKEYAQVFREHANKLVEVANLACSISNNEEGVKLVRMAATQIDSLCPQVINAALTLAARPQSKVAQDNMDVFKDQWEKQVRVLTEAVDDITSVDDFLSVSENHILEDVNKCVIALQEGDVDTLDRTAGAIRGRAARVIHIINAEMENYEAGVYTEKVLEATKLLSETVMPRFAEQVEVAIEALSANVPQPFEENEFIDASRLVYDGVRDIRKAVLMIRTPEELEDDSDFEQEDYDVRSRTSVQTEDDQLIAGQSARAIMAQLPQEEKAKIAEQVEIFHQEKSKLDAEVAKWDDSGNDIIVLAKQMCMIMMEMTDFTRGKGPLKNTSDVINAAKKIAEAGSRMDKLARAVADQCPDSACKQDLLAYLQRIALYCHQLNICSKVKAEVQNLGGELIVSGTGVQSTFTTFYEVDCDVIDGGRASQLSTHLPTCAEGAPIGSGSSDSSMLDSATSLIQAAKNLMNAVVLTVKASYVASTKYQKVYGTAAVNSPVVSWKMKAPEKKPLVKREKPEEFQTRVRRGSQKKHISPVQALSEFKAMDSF
UniProt P99999: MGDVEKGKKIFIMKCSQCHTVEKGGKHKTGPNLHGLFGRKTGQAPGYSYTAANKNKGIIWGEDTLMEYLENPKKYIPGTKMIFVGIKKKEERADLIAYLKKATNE
UniProt Q13616, whole entry, looked up: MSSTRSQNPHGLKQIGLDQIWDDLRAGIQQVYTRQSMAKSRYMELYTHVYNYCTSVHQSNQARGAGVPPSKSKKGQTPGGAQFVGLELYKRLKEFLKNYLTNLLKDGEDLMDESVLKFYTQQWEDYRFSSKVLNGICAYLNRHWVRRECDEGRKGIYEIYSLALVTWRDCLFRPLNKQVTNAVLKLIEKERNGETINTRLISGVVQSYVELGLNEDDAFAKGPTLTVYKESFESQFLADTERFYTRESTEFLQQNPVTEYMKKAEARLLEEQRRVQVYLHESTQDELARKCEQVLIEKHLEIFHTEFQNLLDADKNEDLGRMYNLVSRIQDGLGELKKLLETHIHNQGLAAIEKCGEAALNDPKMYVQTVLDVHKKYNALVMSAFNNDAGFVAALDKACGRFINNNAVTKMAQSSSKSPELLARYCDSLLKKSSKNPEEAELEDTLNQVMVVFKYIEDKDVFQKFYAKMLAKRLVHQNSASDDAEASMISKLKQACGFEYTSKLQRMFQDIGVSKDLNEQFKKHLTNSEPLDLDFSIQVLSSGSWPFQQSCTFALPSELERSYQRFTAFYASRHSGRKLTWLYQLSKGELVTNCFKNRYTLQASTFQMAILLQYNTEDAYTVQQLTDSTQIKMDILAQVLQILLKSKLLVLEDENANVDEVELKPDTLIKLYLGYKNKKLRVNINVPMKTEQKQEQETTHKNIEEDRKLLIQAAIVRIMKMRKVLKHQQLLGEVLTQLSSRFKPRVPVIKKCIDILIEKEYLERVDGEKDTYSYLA
UniProt Q7Z7A3: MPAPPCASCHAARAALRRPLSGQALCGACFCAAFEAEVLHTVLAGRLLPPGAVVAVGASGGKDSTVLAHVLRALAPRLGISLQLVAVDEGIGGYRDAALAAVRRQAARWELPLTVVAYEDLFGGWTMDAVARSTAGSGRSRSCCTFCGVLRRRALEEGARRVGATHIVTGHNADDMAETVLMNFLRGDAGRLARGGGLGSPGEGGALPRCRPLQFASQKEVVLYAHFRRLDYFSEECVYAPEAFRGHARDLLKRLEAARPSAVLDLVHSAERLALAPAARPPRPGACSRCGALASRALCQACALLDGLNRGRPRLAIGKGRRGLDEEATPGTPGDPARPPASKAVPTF
UniProt Q96HD1: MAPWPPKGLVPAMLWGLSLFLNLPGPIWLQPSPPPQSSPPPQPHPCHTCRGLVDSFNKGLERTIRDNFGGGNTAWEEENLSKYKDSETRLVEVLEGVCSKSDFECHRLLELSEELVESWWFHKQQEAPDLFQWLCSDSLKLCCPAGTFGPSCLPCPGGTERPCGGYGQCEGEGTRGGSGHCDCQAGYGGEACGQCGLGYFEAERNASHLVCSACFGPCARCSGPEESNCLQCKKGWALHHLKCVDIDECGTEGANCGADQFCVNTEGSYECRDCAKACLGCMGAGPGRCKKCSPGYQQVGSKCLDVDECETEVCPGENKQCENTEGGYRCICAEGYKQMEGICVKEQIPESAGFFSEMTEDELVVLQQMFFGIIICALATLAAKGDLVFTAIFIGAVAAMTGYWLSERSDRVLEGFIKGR
UniProt Q6GPI1, whole entry, looked up: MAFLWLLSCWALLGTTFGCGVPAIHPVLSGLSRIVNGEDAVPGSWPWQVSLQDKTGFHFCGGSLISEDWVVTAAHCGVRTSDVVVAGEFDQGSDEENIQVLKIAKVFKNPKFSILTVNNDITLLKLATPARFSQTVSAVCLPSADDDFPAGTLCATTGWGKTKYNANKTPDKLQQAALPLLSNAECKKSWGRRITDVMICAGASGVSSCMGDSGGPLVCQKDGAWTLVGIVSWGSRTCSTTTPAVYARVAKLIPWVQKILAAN
UniProt O75575: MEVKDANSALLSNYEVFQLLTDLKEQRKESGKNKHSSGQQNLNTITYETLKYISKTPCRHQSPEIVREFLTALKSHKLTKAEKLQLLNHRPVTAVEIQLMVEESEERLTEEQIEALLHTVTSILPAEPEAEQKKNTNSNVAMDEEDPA

Key:
Experiment in all cases: log2 fold change, soluble protein after heating vs DMSO (PISA); higher = thermal stabilisation; K562 lysate, 10 uM; active = over 0.2 and 3.5 SD of the protein, either way, in both replicates (recomputed)
nilotinib = compound: Cc1cn(-c2cc(NC(=O)c3ccc(C)c(Nc4nccc(-c5cccnc5)n4)c3)cc(C(F)(F)F)c2)cn1 [nilotinib]
Outline: (§1)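 K562 pellets were dounce-homogenised in PBS pH 7.4 containing 1 mM MgCl2, and the crude extract, at 1 mg/mL protein, was exposed to 10 μM compound for 30 min. Aliquots were heated for 3 min across 48°C-58°C, pooled, brought to 0.5% NP-40 at 4°C and spun at 21,000xg for 90 min, with the supernatant taken as soluble protein. TMTpro 16plex LC-MS/MS with equalised channel sums quantified that protein. Values are log-two fold changes in thermal stability relative to solvent controls, taken from duplicates.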

[1] = compound: Cc1nc(Nc2n[nH]c3c2CN(C(=O)N[C@H](CN(C)C)c2ccccc2)C3(C)C)c2sccc2n1
Outline: as §1

dasatinib = compound: Cc1nc(Nc2ncc(C(=O)Nc3c(C)cccc3Cl)s2)cc(N2CCN(CCO)CC2)n1 [dasatinib]
Outline: as §1

[2] = compound: Cc1ncc(-c2ccnc(Nc3ccc(S(C)(=O)=O)cc3)n2)n1C(C)C
Outline: as §1

[3] = compound: Cn1cc(-c2ccc3c(c2)CCN3C(=O)Cc2cccc(C(F)(F)F)c2)c2c(N)ncnc21
Outline: as §1

quisinostat = compound: Cn1cc(CNCC2CCN(c3ncc(C(=O)NO)cn3)CC2)c2ccccc21 [quisinostat]
Outline: as §1

tipifarnib = compound: Cn1cncc1[C@@](N)(c1ccc(Cl)cc1)c1ccc2c(c1)c(-c1cccc(Cl)c1)cc(=O)n2C [tipifarnib]
Outline: as §1

[4] = compound: NC(=O)Nc1cc(-c2cccc(F)c2)sc1C(=O)N[C@H]1CCCNC1
Outline: as §1

[5] = compound: NC(=O)c1cnc(N[C@@H]2CCCC[C@@H]2N)nc1Nc1cccc(-n2nccn2)c1
Outline: as §1

[6] = compound: NC1(c2ccc(-c3nc4ccn5c(=O)[nH]nc5c4cc3-c3ccccc3)cc2)CCC1
Outline: as §1

[7] = compound: NCC(=O)Nc1ccc(-n2nc(C(F)(F)F)cc2-c2ccc3c(ccc4ccccc43)c2)cc1
Outline: as §1

vorinostat = compound: O=C(CCCCCCC(=O)Nc1ccccc1)NO [vorinostat]
Outline: as §1

silmitasertib = compound: O=C(O)c1ccc2c(c1)nc(Nc1cccc(Cl)c1)c1ccncc12 [silmitasertib]
Outline: as §1

[8] = compound: O=C1NC(=O)C(c2cnc3ccccn23)=C1c1cn2c3c(cc(F)cc13)CN(C(=O)N1CCCCC1)CC2
Outline: as §1

entospletinib = compound: c1cn2cc(-c3ccc4cn[nH]c4c3)nc(Nc3ccc(N4CCOCC4)cc3)c2n1 [entospletinib]
Outline: as §1

Target | log2 fold change (nilotinib) | log2 fold change [1] | log2 fold change (dasatinib) | log2 fold change [2] | log2 fold change [3] | log2 fold change (quisinostat) | log2 fold change (tipifarnib) | log2 fold change [4] | log2 fold change [5] | log2 fold change [6] | log2 fold change [7] | log2 fold change (vorinostat) | log2 fold change (silmitasertib) | log2 fold change [8] | log2 fold change (entospletinib)
CSTF2 (UniProt P33240) | inactive: 0.031 | inactive: 0.038 | inactive: 0.03 | inactive: -0.017 | inactive: -0.029 | inactive: 0.033 | inactive: -0.021 | inactive: -0.013 | inactive: -0.007 | inactive: 0.052 | inactive: 0.001 | inactive: 0.046 | inactive: 0.007 | inactive: 0.013 | inactive: -0.045
CUL7 isoform 2 (UniProt Q14999) | inactive: 0.034 | inactive: 0.01 | inactive: 0.048 | inactive: -0.025 | inactive: 0.003 | inactive: -0.063 | inactive: -0.025 | inactive: 0.113 | inactive: -0.004 | inactive: 0.014 | inactive: -0.013 | inactive: -0.179 | inactive: 0.077 | inactive: -0.019 | inactive: 0.043
CTNNB1 (UniProt P35222) | inactive: -0.056 | inactive: 0.011 | inactive: 0.053 | inactive: -0.08 | inactive: 0.022 | inactive: 0.016 | inactive: 0.044 | inactive: -0.037 | inactive: -0.048 | inactive: 0.043 | inactive: 0.114 | inactive: -0.026 | inactive: 0.017 | inactive: 0.002 | inactive: 0.022
CSNK1G2 (UniProt P78368) | inactive: -0.084 | inactive: 0.183 | inactive: 0.001 | inactive: 0.281 | inactive: -0.023 | inactive: -0.03 | inactive: 0.039 | inactive: 0.127 | inactive: 0 | inactive: 0.087 | inactive: -0.019 | inactive: -0.029 | inactive: -0.06 | inactive: -0.025 | inactive: 0.079
CSNK1A1 (UniProt P48729) | inactive: -0.04 | inactive: 0.045 | inactive: 0.088 | inactive: 0.123 | inactive: -0.039 | inactive: -0.04 | inactive: -0.019 | inactive: 0.197 | inactive: 0.018 | inactive: -0.07 | inactive: 0.001 | active: -0.276 | inactive: 0.088 | inactive: -0.044 | inactive: 0.017
CSTF1 (UniProt Q05048) | inactive: -0.023 | inactive: 0.009 | inactive: 0.035 | inactive: -0.028 | inactive: 0.002 | inactive: -0.005 | inactive: 0.037 | inactive: 0.035 | inactive: -0.035 | inactive: 0.019 | inactive: -0.002 | inactive: 0.036 | inactive: -0.033 | inactive: 0.003 | inactive: -0.027
CXorf56 (UniProt Q9H5V9) | inactive: -0.017 | inactive: 0.072 | inactive: -0.024 | inactive: -0.039 | inactive: 0.015 | inactive: 0.009 | inactive: 0.02 | inactive: -0.006 | inactive: -0.005 | inactive: -0.03 | inactive: -0.015 | inactive: -0.083 | inactive: -0.02 | inactive: 0.014 | inactive: -0.03
CWF19L2 (UniProt Q2TBE0) | inactive: -0.031 | inactive: 0.062 | inactive: 0.002 | inactive: -0.039 | inactive: 0.018 | inactive: 0.026 | inactive: -0.022 | inactive: -0.021 | inactive: 0.024 | inactive: 0 | inactive: 0.019 | inactive: -0.063 | inactive: 0.035 | inactive: -0.028 | inactive: -0.011
CTTN (UniProt Q14247) | inactive: -0.002 | inactive: 0.011 | inactive: 0.052 | inactive: -0.026 | inactive: 0.036 | inactive: 0.017 | inactive: 0.033 | inactive: -0.023 | inactive: 0.001 | inactive: -0.044 | inactive: -0.005 | inactive: 0.073 | inactive: -0.034 | inactive: 0 | inactive: 0
CTNNAL1 (UniProt Q9UBT7) | inactive: -0.095 | inactive: -0.079 | inactive: -0.042 | inactive: 0 | inactive: -0.021 | inactive: 0.059 | inactive: 0.212 | inactive: 0.012 | inactive: 0.015 | inactive: -0.064 | inactive: -0.033 | inactive: -0.262 | inactive: 0.024 | inactive: 0.033 | inactive: -0.052
CTSA (UniProt P10619) | inactive: 0.023 | inactive: 0.008 | inactive: -0.029 | inactive: -0.03 | inactive: 0.045 | inactive: -0.018 | inactive: 0.034 | inactive: 0.023 | inactive: 0.024 | inactive: -0.063 | inactive: -0.006 | inactive: 0.008 | inactive: -0.044 | inactive: -0.011 | inactive: -0.009
CRK (UniProt P46108) | inactive: 0.005 | inactive: -0.001 | inactive: 0.024 | inactive: -0.018 | inactive: -0.014 | inactive: -0.078 | inactive: 0.011 | inactive: 0.024 | inactive: 0.011 | inactive: -0.009 | inactive: 0.023 | inactive: 0.143 | inactive: -0.029 | inactive: -0.014 | inactive: 0
CTNNA2 (UniProt P26232) | inactive: 0.05 | inactive: 0.069 | inactive: -0.035 | inactive: 0.038 | inactive: -0.019 | inactive: 0.024 | inactive: 0 | inactive: -0.05 | inactive: 0.003 | inactive: -0.008 | inactive: 0.048 | inactive: -0.057 | inactive: -0.015 | inactive: 0.013 | inactive: -0.001
CYCS (UniProt P99999) | inactive: 0.014 | inactive: -0.038 | inactive: 0.001 | inactive: 0.008 | inactive: -0.037 | inactive: 0.035 | inactive: 0.015 | inactive: -0.003 | inactive: -0.015 | inactive: 0.022 | inactive: 0.017 | inactive: 0.114 | inactive: -0.004 | inactive: 0.033 | inactive: 0.011
CYFIP1 (UniProt Q7L576) | inactive: 0.009 | inactive: -0.017 | inactive: -0.012 | inactive: -0.029 | inactive: -0.004 | inactive: 0.023 | inactive: 0.027 | inactive: 0.003 | inactive: 0.002 | inactive: 0.006 | inactive: -0.001 | inactive: -0.034 | inactive: 0.029 | inactive: -0.001 | inactive: 0.018
CUL1 (UniProt Q13616) | inactive: 0.025 | inactive: 0.022 | inactive: 0.034 | inactive: 0.028 | inactive: 0.027 | inactive: 0.017 | inactive: 0.001 | inactive: -0.021 | inactive: -0.011 | inactive: -0.004 | inactive: 0.001 | inactive: 0.072 | inactive: 0.006 | inactive: -0.007 | inactive: 0.009
CYB5R2 (UniProt Q6BCY4) | inactive: 0.011 | inactive: -0.011 | inactive: 0.026 | inactive: -0.027 | inactive: -0.041 | inactive: -0.054 | inactive: -0.007 | inactive: 0.023 | inactive: 0.022 | inactive: -0.013 | inactive: 0.01 | inactive: 0.127 | inactive: -0.005 | inactive: -0.025 | inactive: -0.036
CTU1 (UniProt Q7Z7A3) | inactive: -0.019 | inactive: 0.009 | inactive: -0.04 | inactive: 0.027 | inactive: -0.004 | inactive: -0.098 | inactive: 0.016 | inactive: 0.019 | inactive: -0.012 | inactive: 0.006 | inactive: -0.02 | inactive: -0.116 | inactive: -0.028 | inactive: -0.019 | inactive: -0.034
CRELD1 isoform 2 (UniProt Q96HD1) | inactive: -0.126 | inactive: 0.019 | inactive: -0.018 | inactive: -0.136 | inactive: -0.038 |  | inactive: -0.008 |  | inactive: 0.005 | inactive: 0.006 | inactive: -0.045 | inactive: -0.014 | inactive: -0.05 |  | inactive: -0.039
CTRB2 (UniProt Q6GPI1) | inactive: -0.028 | inactive: 0.133 |  | inactive: 0.026 |  |  | inactive: -0.09 |  | inactive: -0.044 |  | inactive: -0.133 |  |  |  | inactive: -0.022
CTTNBP2NL (UniProt Q9P2B4) | inactive: -0.003 | inactive: -0.047 |  | inactive: 0.026 |  | inactive: -0.082 | inactive: 0.169 | inactive: -0.005 | inactive: -0.007 |  | inactive: 0 |  |  | inactive: -0.001 | inactive: 0.059
CRCP (UniProt O75575) | inactive: -0.024 | inactive: 0 |  | inactive: -0.033 |  | inactive: 0.006 | inactive: -0.021 | inactive: 0.052 | inactive: 0.057 | inactive: 0.009 | inactive: 0.004 | inactive: 0.072 | inactive: -0.031 | inactive: -0.029 | inactive: -0.018

Copied from the list.
CRCP (UniProt O75575) | log2 fold change [1]: inactive: 0
CTSA (UniProt P10619) | log2 fold change (tipifarnib): inactive: 0.034

Quoted at random: two records from the list
Target | log2 fold change (nilotinib) | log2 fold change [1] | log2 fold change (dasatinib) | log2 fold change [2] | log2 fold change [3] | log2 fold change (quisinostat) | log2 fold change (tipifarnib) | log2 fold change [4] | log2 fold change [5] | log2 fold change [6] | log2 fold change [7] | log2 fold change (vorinostat) | log2 fold change (silmitasertib) | log2 fold change [8] | log2 fold change (entospletinib)
CTTN (UniProt Q14247) | inactive: -0.002 | inactive: 0.011 | inactive: 0.052 | inactive: -0.026 | inactive: 0.036 | inactive: 0.017 | inactive: 0.033 | inactive: -0.023 | inactive: 0.001 | inactive: -0.044 | inactive: -0.005 | inactive: 0.073 | inactive: -0.034 | inactive: 0 | inactive: 0
CSNK1G2 (UniProt P78368) | inactive: -0.084 | inactive: 0.183 | inactive: 0.001 | inactive: 0.281 | inactive: -0.023 | inactive: -0.03 | inactive: 0.039 | inactive: 0.127 | inactive: 0 | inactive: 0.087 | inactive: -0.019 | inactive: -0.029 | inactive: -0.06 | inactive: -0.025 | inactive: 0.079
